Positions count from the first letter of the chain named. No constants are given. Whether binding was seen depends on the method and setting. Some binding calls cover weakened binding; strength is not graded here. Blank lines part the entries; values can stand above or below the binder they belong to.
Columns and labels:
Activin B = Activin B (UniProt P09529); assay: BLI Octet; IgG, avid; binder with a poor fit to a 1:1 model
[1] = target: human Activin A Fc (human) (UniProt P08476); assay: summary of Tables 4 and 5 (SPR, Octet)

Chains of the proteins cited; added tags and fusions are not shown. Lines headed by an entry give the natural chain unless they say otherwise; changes in a name come on top. Residues count along the entry.
UniProt P09529, residues 293-407: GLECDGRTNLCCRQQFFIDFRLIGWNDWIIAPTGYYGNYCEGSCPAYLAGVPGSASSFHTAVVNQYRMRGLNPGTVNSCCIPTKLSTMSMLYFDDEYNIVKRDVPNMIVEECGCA
UniProt P08476: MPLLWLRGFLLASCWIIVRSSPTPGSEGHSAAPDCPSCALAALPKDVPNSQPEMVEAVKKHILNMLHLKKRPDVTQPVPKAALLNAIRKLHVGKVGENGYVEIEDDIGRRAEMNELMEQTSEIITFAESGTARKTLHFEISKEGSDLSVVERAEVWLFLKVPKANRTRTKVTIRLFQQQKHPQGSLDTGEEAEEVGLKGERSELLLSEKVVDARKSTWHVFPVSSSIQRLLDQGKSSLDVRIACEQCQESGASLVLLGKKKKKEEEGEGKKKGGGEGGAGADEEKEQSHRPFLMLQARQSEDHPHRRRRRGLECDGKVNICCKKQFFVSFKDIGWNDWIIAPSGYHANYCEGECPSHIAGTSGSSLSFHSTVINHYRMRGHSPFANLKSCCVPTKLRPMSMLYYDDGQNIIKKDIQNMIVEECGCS

- binding (Activin B): binds
- binding [1]: binds
B1: Antibody P (Clone P), IgG (antibody, V domains shown)
VH: QVQLVQSGAEVKKPGSSVKVSCKASGGTFDDYAISWVRQAPGQGLEWMGGIIPRFGIANYAQKFQGRVTITADESTSTAYMELSSLRSEDTAVYYCARPPSSGSDWGQGTLVTVSS
VL: DIQMTQSPSSVSASVGDRVTITCRASQGIDSWLAWYQQKPGKAPKLLIYAASSLQSGVPSRFSGSGSGTDFTLTISSLQPEDFATYYCQQVHSFPITFGGGTKVEIKR

- binding [1]: binds
B2: Antibody F (Clone F), IgG (antibody, V domains shown)
VH: QVQLVQSGAEVKKPGASVKVSCKASGYTFTGYHIHWVRQVPGQGLEWMGVISAYSGDTNYAQKLQGRVTMTTDTSTSTAYMELRSLRSDDTAVYYCARARDIAALGLGAFDYWGQGTLVTVSS
VL: EIVLTQSPATLSVSPGERATLSCRASQSVSSNLAWYQQKPGQAPRLLIYGASDRATGIPARFSGSGSGTEFTLTISSLQSEDFAVYYCIQYSNYPRTFGGGTKVEIKR

- binding [1]: binds
B3: Antibody L (Clone L), IgG (antibody, V domains shown)
VH: QVQLQESGPGLVKPSETLSLTCAVSGYSISSGYYWGWIRQPPGKGLEWIGSIYHSGSTYYNPSLKSRVTISVDTSKNQFSLKLSSVTAADTAVYYCAREAGSGYWYLSVYGMDVWGQGTTVTVSS
VL: B2 VL with D53T, I89Q, Y91S, S92D, N93D, Y94W, R96W

From patent US20250109190A1
